# Laboratory results reported in patent US4783461A, “3,6-disubstituted triazolo [3,4-A]phthalazine derivatives” (Gruppo Lepetit S.p.A., priority 1983, dated 1988).
# Biological target: rat brain benzodiazepine receptors (3H-diazepam receptor)
# Test: benzodiazepine-receptor binding test in vitro (inhibition of specific 3H-diazepam binding to rat brain membranes)
# Conditions: constant used in the Ki formula, read-out: KD, affinity constant of 3H-diazepam for its receptor
# From the text: The pharmacological properties of the compounds of the present invention were first investigated by submitting some representative members of this class to the benzodiazepine-receptor binding-test in vitro.
smiles,measurement,value
"CN1C(=O)CN=C(c2ccccc2)c2cc(Cl)ccc21 [^3 H-diazepam, reference compound]",Kd,3.4 nM
